Values from PubChem BioAssay AID1224826 (NIAID, 2016).
Shown is one part, drawn at random, of about 17,000 reagents. Over the whole deposit, about 1,110 (6.6%) are marked active. 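Active means lowered or raised reporter signal; replicate intensities are raw and not normalised per plate.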 Further read-outs or replicates are left out here.

Purpose: 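Knock-downs that raise or lower Tnf reporter signal after endotoxin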 (primary screen)
Cells: RAW264.7 G9 macrophages from mouse bearing reporters for p65 (GFP) and the Tnf promoter (mCherry)
Knock-down reagent: siRNA pool against mouse genes, 100 nM
Duration: 16 h of LPS stimulation, after 2 days of siRNA transfection
Conditions: bacterial lipopolysaccharide (Salmonella minnesota R595), 10 ng/ml
Read-out: 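Imaged Tnf reporter mCherry in nuclei, minus background, normalised per plate to the median and expressed as robust z-scores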
Scale: Tnf reporter robust z-score: higher = stronger Tnf promoter reporter signal after LPS
Call rule: 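a well counts as active at a score of -1.3 or below (Tlr4 knock-down control median) or above 3 (raised signal); controls and wells holding fewer than 50 cells are excluded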
Calls: active = Tnf reporter clearly lowered or raised; inactive = no clear change in Tnf reporter

Arhgef38 (Rho guanine nucleotide exchange factor 38) — Tnf reporter robust z-score = 0.11; fewer than 50 cells in well = enough cells in well; Call = inactive
Tspan5 (tetraspanin 5) — Tnf reporter robust z-score = 1.55; fewer than 50 cells in well = enough cells in well; Call = inactive
Ankrd6 (ankyrin repeat domain 6) — Tnf reporter robust z-score = -0.82; fewer than 50 cells in well = enough cells in well; Call = inactive
Or9s18 (olfactory receptor family 9 subfamily S member 18) — Tnf reporter robust z-score = 1.77; fewer than 50 cells in well = enough cells in well; Call = inactive
Tmem147 (transmembrane protein 147) — Tnf reporter robust z-score = -1.1; fewer than 50 cells in well = enough cells in well; Call = inactive
Socs1 (suppressor of cytokine signaling 1) — Tnf reporter robust z-score = 0.48; fewer than 50 cells in well = enough cells in well; Call = inactive
Dner (delta/notch-like EGF repeat containing) — Tnf reporter robust z-score = 0.33; fewer than 50 cells in well = enough cells in well; Call = inactive
Zmynd11 (zinc finger, MYND domain containing 11) — Tnf reporter robust z-score = -0.48; fewer than 50 cells in well = enough cells in well; Call = inactive
Slc22a30 — Tnf reporter robust z-score = 1.29; fewer than 50 cells in well = enough cells in well; Call = inactive
Xpo6 (exportin 6) — Tnf reporter robust z-score = 1.77; fewer than 50 cells in well = enough cells in well; Call = inactive
H2-M10.1 (histocompatibility 2, M region locus 10.1) — Tnf reporter robust z-score = 1.94; fewer than 50 cells in well = enough cells in well; Call = inactive
Cby2 (chibby family member 2) — Tnf reporter robust z-score = -1.17; fewer than 50 cells in well = enough cells in well; Call = inactive
